Results: patent publication US20220074941A1, “HSP90 COMBINATION THERAPY” (Sloan-Kettering Institute for Cancer Research, priority 2011, published 2022)

B1: ILF3 (protein, UniProt Q12906 1-894, looked up)
Interleukin enhancer-binding …: MRPMRIFVNDDRHVMAKHSSVYPTQEELEAVQNMVSHTERALKAVSDWIDEQEKGSSEQAESDNMDVPPEDDSKEGAGEQKTEHMTRTLRGVMRVGLVAKGLLLKGDLDLELVLLCKEKPTTALLDKVADNLAIQLAAVTEDKYEILQSVDDAAIVIKNTKEPPLSLTIHLTSPVVREEMEKVLAGETLSVNDPPDVLDRQKCLAALASLRHAKWFQARANGLKSCVIVIRVLRDLCTRVPTWGPLRGWPLELLCEKSIGTANRPMGAGEALRRVLECLASGIVMPDGSGIYDPCEKEATDAIGHLDRQQREDITQSAQHALRLAAFGQLHKVLGMDPLPSKMPKKPKNENPVDYTVQIPPSTTYAITPMKRPMEEDGEEKSPSKKKKKIQKKEEKAEPPQAMNALMRLNQLKPGLQYKLVSQTGPVHAPIFTMSVEVDGNSFEASGPSKKTAKLHVAVKVLQDMGLPTGAEGRDSSKGEDSAEETEAKPAVVAPAPVVEAVSTPSAAFPSDATAEQGPILTKHGKNPVMELNEKRRGLKYELISETGGSHDKRFVMEVEVDGQKFQGAGSNKKVAKAYAALAALEKLFPDTPLALDANKKKRAPVPVRGGPKFAAKPHNPGFGMGGPMHNEVPPPPNLRGRGRGGSIRGRGRGRGFGGANHGGYMNAGAGYGSYGYGGNSATAGYSQFYSNGGHSGNASGGGGGGGGGSSGYGSYYQGDNYNSPVPPKHAGKKQPHGGQQKPSYGSGYQSHQGQQQSYNQSPYSNYGPPQGKQKGYNHGQGSYSYSNSYNSPGGGGGSDYNYESKFNYSGSGGRSGGNSYGSGGASYNPGSHGGYGGGSGGGSSYQGKQGGYSQSNYNSPGSGQNYSGPPSSYQSSQGGYGRNADHSMNYQYR
B2: CYFIP1 (protein, UniProt Q7L576 1-1253, looked up)
Cytoplasmic FMR1-interacting …: MAAQVTLEDALSNVDLLEELPLPDQQPCIEPPPSSLLYQPNFNTNFEDRNAFVTGIARYIEQATVHSSMNEMLEEGQEYAVMLYTWRSCSRAIPQVKCNEQPNRVEIYEKTVEVLEPEVTKLMNFMYFQRNAIERFCGEVRRLCHAERRKDFVSEAYLITLGKFINMFAVLDELKNMKCSVKNDHSAYKRAAQFLRKMADPQSIQESQNLSMFLANHNKITQSLQQQLEVISGYEELLADIVNLCVDYYENRMYLTPSEKHMLLKVMGFGLYLMDGSVSNIYKLDAKKRINLSKIDKYFKQLQVVPLFGDMQIELARYIKTSAHYEENKSRWTCTSSGSSPQYNICEQMIQIREDHMRFISELARYSNSEVVTGSGRQEAQKTDAEYRKLFDLALQGLQLLSQWSAHVMEVYSWKLVHPTDKYSNKDCPDSAEEYERATRYNYTSEEKFALVEVIAMIKGLQVLMGRMESVFNHAIRHTVYAALQDFSQVTLREPLRQAIKKKKNVIQSVLQAIRKTVCDWETGHEPFNDPALRGEKDPKSGFDIKVPRRAVGPSSTQLYMVRTMLESLIADKSGSKKTLRSSLEGPTILDIEKFHRESFFYTHLINFSETLQQCCDLSQLWFREFFLELTMGRRIQFPIEMSMPWILTDHILETKEASMMEYVLYSLDLYNDSAHYALTRFNKQFLYDEIEAEVNLCFDQFVYKLADQIFAYYKVMAGSLLLDKRLRSECKNQGATIHLPPSNRYETLLKQRHVQLLGRSIDLNRLITQRVSAAMYKSLELAIGRFESEDLTSIVELDGLLEINRMTHKLLSRYLTLDGFDAMFREANHNVSAPYGRITLHVFWELNYDFLPNYCYNGSTNRFVRTVLPFSQEFQRDKQPNAQPQYLHGSKALNLAYSSIYGSYRNFVGPPHFQVICRLLGYQGIAVVMEELLKVVKSLLQGTILQYVKTLMEVMPKICRLPRHEYGSPGILEFFHHQLKDIVEYAELKTVCFQNLREVGNAILFCLLIEQSLSLEEVCDLLHAAPFQNILPRVHVKEGERLDAKMKRLESKYAPLHLVPLIERLGTPQQIAIAREGDLLTKERLCCGLSMFEVILTRIRSFLDDPIWRGPLPSNGVMHVDECVEFHRLWSAMQFVYCIPVGTHEFTVEQCFGDGLHWAGCMIIVLLGQQRRFAVLDFCYHLLKVQKHDGKDEIIKNVPLKKMVERIRKFQILNDEIITILDKYLKSGDGEGTPVEHVRCFQPPIHQSLASS
B3: TRIM28 (protein, UniProt Q13263 2-835, looked up)
Transcription intermediary …: AASAAAASAAAASAASGSPGPGEGSAGGEKRSTAPSAAASASASAAASSPAGGGAEALELLEHCGVCRERLRPEREPRLLPCLHSACSACLGPAAPAAANSSGDGGAAGDGTVVDCPVCKQQCFSKDIVENYFMRDSGSKAATDAQDANQCCTSCEDNAPATSYCVECSEPLCETCVEAHQRVKYTKDHTVRSTGPAKSRDGERTVYCNVHKHEPLVLFCESCDTLTCRDCQLNAHKDHQYQFLEDAVRNQRKLLASLVKRLGDKHATLQKSTKEVRSSIRQVSDVQKRVQVDVKMAILQIMKELNKRGRVLVNDAQKVTEGQQERLERQHWTMTKIQKHQEHILRFASWALESDNNTALLLSKKLIYFQLHRALKMIVDPVEPHGEMKFQWDLNAWTKSAEAFGKIVAERPGTNSTGPAPMAPPRAPGPLSKQGSGSSQPMEVQEGYGFGSGDDPYSSAEPHVSGVKRSRSGEGEVSGLMRKVPRVSLERLDLDLTADSQPPVFKVFPGSTTEDYNLIVIERGAAAAATGQPGTAPAGTPGAPPLAGMAIVKEEETEAAIGAPPTATEGPETKPVLMALAEGPGAEGPRLASPSGSTSSGLEVVAPEGTSAPGGGPGTLDDSATICRVCQKPGDLVMCNQCEFCFHLDCHLPALQDVPGEEWSCSLCHVLPDLKEEDGSLSLDGADSTGVVAKLSPANQRKCERVLLALFCHEPCRPLHQLATDSTFSLDQPGGTLDLTLIRARLQEKLSPPYSSPQEFAQDVGRMFKQFNKLTEDKADVQSIIGLQRFFETRMNEAFGDTKFSAVLVEPPPMSLPGAGLSSQELSGGPGDGP
B4: MIF (protein, UniProt P14174 2-115, looked up)
Macrophage migration …: PMFIVNTNVPRASVPDGFLSELTQQLAQATGKPPQYIAVHVVPDQLMAFGGSSEPCALCSLHSIGKIGGAQNRSYSKLLCGLLAERLRISPDRVYINYYDMNAANVGWNNSTFA
B5: PA2G4 (protein, UniProt Q9UQ80 2-394, looked up)
Proliferation-associated …: SGEDEQQEQTIAEDLVVTKYKMGGDIANRVLRSLVEASSSGVSVLSLCEKGDAMIMEETGKIFKKEKEMKKGIAFPTSISVNNCVCHFSPLKSDQDYILKEGDLVKIDLGVHVDGFIANVAHTFVVDVAQGTQVTGRKADVIKAAHLCAEAALRLVKPGNQNTQVTEAWNKVAHSFNCTPIEGMLSHQLKQHVIDGEKTIIQNPTDQQKKDHEKAEFEVHEVYAVDVLVSSGEGKAKDAGQRTTIYKRDPSKQYGLKMKTSRAFFSEVERRFDAMPFTLRAFEDEKKARMGVVECAKHELLQPFNVLYEKEGEFVAQFKFTVLLMPNGPMRITSGPFEPDLYKSEMEVQDAELKALLQSSASRKTQKKKKKKASKTAENATSGETLEENEAGD

What was measured:
[1] = system: Hsp90 complexes in K562 cell extract; test: Nano-LC-MS/MS of PU-beads pull-downs; assay type: binding; settings: protein identified in PU-beads pull-down of K562 extract, QSTAR-Elite QTof MS
Summary of the method: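 Lysates pre-cleared overnight at 4 °C with control beads, then pulled down with PU-beads or control beads; eluted proteins (2% SDS boil) gel-separated and analysed by nano LC-MS/MS on a QTof. Mascot identification (p<0.05), spectral counts and sequence coverage evaluated in Scaffold.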

[2] = system: Hsp90 complexes in Mia-PaCa-2 cell extract; test: Nano-LC-MS/MS of PU-beads pull-downs; assay type: binding, human; settings: protein identified in PU-beads pull-down of Mia-Paca 2 extract; QSTAR-Elite QTof MS
Summary of the method: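 Lysates pre-cleared overnight at 4 °C with control beads underwent PU-bead pull-down; bound proteins were SDS-eluted, gel-separated, digested and analyzed by nano-LC-MS/MS on a QTof. Identifications used significance p<0.05, 0.4 Da tolerances and one missed cleavage; unique peptide (spectral) counts and sequence coverage were reported.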

Row | Molecule | Number of Assigned Spectra, K562 Prep 1 [1] | Number of Assigned Spectra, K562 Prep 2 [1] | Number of Assigned Spectra, Mia-Paca 2 [2]
1 | B1 | 25 | 16 | 20
2 | B2 | 8 | 4 | 4
3 | B3 | 16 | 14 | 4
4 | B4 | 3 | 0 | 25
5 | B5 | 3 | 8 | 14
